Data as given in PubChem BioAssay AID504793 (Drosophila RNAi Screening Center, 2011)

Assay: 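Whole-genome screen for parts of the DNA damage checkpoint at G2/M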 (primary screen)
Cells: Drosophila S2R+ cells
Reagents: long dsRNA against Drosophila genes, about 0.25 µg dsRNA per well
Timing: 4 days of dsRNA, then 4 hours of drug before read-out
Conditions: doxorubicin 0.5 µM for 4 hours to cause double-strand breaks, in cells also given a low, harmless dose of dsRNA against nbs to sensitise the assay
Detection: 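Per-well count of mitotic cells stained for phospho-histone H3 after doxorubicin exposure, used as mitotic index; counts are raw and not normalised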
Reading the numbers: mitotic cells: higher = more cells in mitosis, weaker G2 arrest
Hit rule: 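a call needs confirmation in secondary tests, with other dsRNAs and a check of mitotic timing without damage, not just a high primary count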
Calls: active = confirmed in follow-up tests; inactive = not confirmed
In all, the deposit lists about 23,000 reagents; below is an unselected part of those that have a named target and a result. Over the whole deposit, 62 (0.27%) are marked active. 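Calls come from follow-up tests whose scores are not deposited, so confirmed genes may have low counts here; counts are not normalised per plate.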 The raw values are shown without normalisation. Entries without a mark were called inactive.

no.	Target gene	dsRNA	mitotic cells, replicate 1
1	CG30015 (GeneID 36147)	DRSC05241	1
2	CG30015 (GeneID 36147)	DRSC07027	7
3	CG30015 (GeneID 36147)	DRSC07028	8
4	CG6136 (GeneID 41877)	DRSC15975	8
5	AdamTS-B (GeneID 31490)	DRSC18346	12
6	AdamTS-B (GeneID 31490)	DRSC27769	7
7	CG18335 (GeneID 36202)	DRSC06723	10
8	CG18335 (GeneID 36202)	DRSC29997	9
9	Ercc1 (GeneID 36654)	DRSC07424	6
10	CG15550 (GeneID 43666)	DRSC15088	7
11	CG15550 (GeneID 43666)	DRSC29401	5
12	CG4622 (GeneID 37919)	DRSC04479	8
13	moon (GeneID 32176)	DRSC19497	13
14	Smyd5 (GeneID 42517)	DRSC15483	7
15	CR15280 (GeneID 3885605)	DRSC01953	7
16	CR15280 (GeneID 3885605)	DRSC24110	11
17	Naus (GeneID 37076)	DRSC06011	5
18	Naus (GeneID 37076)	DRSC06469	6
19	Naus (GeneID 37076)	DRSC23606	4
20	Gr32a (GeneID 34545)	DRSC02400	5
21	CG12374 (GeneID 36410)	DRSC06143	11
22	cpo (GeneID 45840)	DRSC13265	8
23	Tektin-C (GeneID 38653)	DRSC09741	4
24	Tektin-C (GeneID 38653)	DRSC26608	6
25	RpL27A (GeneID 33654)	DRSC00781	5
26	RpL27A (GeneID 33654)	DRSC28466	3
27	CG31380 (GeneID 318701)	DRSC15688	18
28	CG30197 (GeneID 246513)	DRSC22394	5
29	CG5674 (GeneID 35072)	DRSC23176	8
30	CG5674 (GeneID 35072)	DRSC28320	1
31	Fcp3C (GeneID 31294)	DRSC18665	5
32	CG17744 (GeneID 38768)	DRSC10286	8
33	CG31782 (retired record) (GeneID 318938)	DRSC01554	1
34	CG31782 (retired record) (GeneID 318938)	DRSC01556	3
35	cue (GeneID 38174)	DRSC08248	5
36	CG13720 (GeneID 38557)	DRSC08329	7
37	CG13720 (GeneID 38557)	DRSC23787	7
38	CG11999 (GeneID 40637)	DRSC12185	5
39	cysu (GeneID 42100)	DRSC15902	10
40	cysu (GeneID 42100)	DRSC28838	6
41	RhoGEF3 (retired record) (GeneID 38051)	DRSC08266	13
42	RhoGEF3 (retired record) (GeneID 38051)	DRSC08353	7
43	lin (GeneID 45325)	DRSC07644	1
44	lin (GeneID 45325)	DRSC28074	12
45	ham (GeneID 35135)	DRSC02070	7
46	ham (GeneID 35135)	DRSC02512	9
47	ham (GeneID 35135)	DRSC02513	8
48	ham (GeneID 35135)	DRSC27582	8
